Test results from PubChem BioAssay AID720504 (National Center for Advancing Translational Sciences (NCATS), 2013).
The campaign covered roughly 360,000 compounds. About 10,000 (2.8%) were called active. The inconclusive results got no clear call from the source; some entries with a clear call stand among them for comparison. Calls come from the whole dose curve; as a rule, active = well fitted inhibition curve with a large enough effect; inconclusive = small, poorly fitted or top-dose-only effect; inactive = flat fitted curve, though single readings scatter. A potency beside an inconclusive call is a rough fit, not a confirmed value.

Chains of the proteins cited; added tags and fusions are not shown.
UniProt P53350, whole entry, looked up: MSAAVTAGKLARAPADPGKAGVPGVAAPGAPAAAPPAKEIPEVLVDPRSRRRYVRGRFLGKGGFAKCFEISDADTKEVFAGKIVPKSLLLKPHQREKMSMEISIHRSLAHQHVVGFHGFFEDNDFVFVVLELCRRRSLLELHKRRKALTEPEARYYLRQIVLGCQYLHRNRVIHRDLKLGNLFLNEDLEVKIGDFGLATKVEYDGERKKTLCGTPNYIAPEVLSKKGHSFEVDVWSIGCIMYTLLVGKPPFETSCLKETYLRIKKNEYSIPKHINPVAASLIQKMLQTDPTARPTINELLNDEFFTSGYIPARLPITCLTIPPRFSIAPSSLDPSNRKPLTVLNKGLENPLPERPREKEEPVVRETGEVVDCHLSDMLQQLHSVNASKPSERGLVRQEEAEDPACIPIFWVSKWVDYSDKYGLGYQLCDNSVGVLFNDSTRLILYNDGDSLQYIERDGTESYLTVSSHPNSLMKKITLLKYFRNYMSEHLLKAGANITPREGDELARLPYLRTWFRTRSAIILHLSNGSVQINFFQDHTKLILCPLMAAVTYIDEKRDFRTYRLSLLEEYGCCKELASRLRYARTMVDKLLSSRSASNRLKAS

target: Serine/threonine-protein kinase PLK1 (Homo sapiens) (UniProt P53350); test: qHTS for Inhibitors of PLK1-PDB (polo-like kinase 1 - polo-box domain): Primary Screen; details: Plk1 PBD binding of FITC phosphopeptide, fluorescence polarization; note: nearly all actives have a fitted effect of over 65% in size; for max response, negative = inhibition: series mostly up to about 57 µM
% is set by controls: 0 for no effect and ±100 for the full control effect; potency is the fitted concentration of half-maximal effect.

Q: How did the Potency turn out when Oc1c(C(c2ccccn2)N2CCCCC2)cc(Cl)c2cccnc12 (stereo unspecified) was run?
A: The Potency was active: 29.9 µM.

Q: Which Potency does the source give for O=C(NCC(=O)N(c1ccc2c(c1)OCO2)C(C(=O)NC1CCCC1)c1ccncc1)c1ccco1 (stereo unspecified) here?
A: Its Potency is active: 2.67 µM.

Q: With CC(C)(C)CC(=O)Nc1nn[nH]n1 as the compound, how does the max response, negative = inhibition read?
A: The max response, negative = inhibition was inactive: -11.5%.

Q: For CCN1C(=O)[C@H]2[C@H]3CN=C(SCC(=O)c4ccccc4)N3[C@@](C)(C(=O)OC)[C@H]2C1=O, which Potency is on record?
A: Its Potency is inconclusive: 23.8 µM [inhibitor, partial curve].

Q: Which Potency does the source give for Cc1nc2c3cc(F)ccc3n(Cc3ccccc3F)c2s1 here?
A: Its Potency is inconclusive: 33.6 µM [inhibitor, single point].

Q: How did the max response, negative = inhibition turn out when COc1ccc(CNC2CCCC2)c(OC)c1OC was run?
A: Its max response, negative = inhibition is inactive: -4.45%.

Q: For CC1Sc2ccc(S(=O)(=O)CCC(=O)NC3CCCC(C)C3C)cc2NC1=O (stereo unspecified), which max response, negative = inhibition is on record?
A: The max response, negative = inhibition was inactive: 1.07%.

Q: Which Potency does the source give for O=S(=O)(c1cc(O)ccc1O)c1cccc2c(S(=O)(=O)c3cc(O)ccc3O)cccc12 here?
A: The Potency was inconclusive: 16.8 µM [inhibitor, single point].

Q: How did the Potency turn out when COc1ccc(CCN(C)CCCN2CC(c3ccccc3)CC2=O)cc1OC (stereo unspecified) was run?
A: The Potency was inconclusive: 29.9 µM [inhibitor, partial curve].

Q: Which Potency does the source give for Cc1ccccc1NC(=O)c1sc2nc3c(c(-c4ccco4)c2c1N)CCC3 here?
A: Its Potency is inconclusive: 16.8 µM [inhibitor, partial curve].

Q: With Cc1ccsc1C1C(C#N)=C(N)OC2=C1C(=O)CCC2 (stereo unspecified) as the compound, how does the Potency read?
A: Its Potency is inconclusive: 15 µM [inhibitor, partial curve].

Q: Which Potency does the source give for Cc1cc(C)cc(NC2=NCC(=O)N2Cc2ccccc2)c1 here?
A: Its Potency is inconclusive: 37.7 µM [inhibitor, single point].

Q: Cc1ccc(S(=O)(=O)c2c(N)n(CCCN(C)C)c3nc4ccccc4nc23)cc1 was tested. Which max response, negative = inhibition did it give?
A: The max response, negative = inhibition was inactive: 2.17%.

Q: Fc1ccc(SCCc2ccncc2)cc1 was tested. Which Potency did it give?
A: The Potency was active: 23.8 µM.

Q: For O=C(CC1N=C2c3ccccc3N=C(SCc3ccc(F)cc3)N2C1=O)NCc1ccco1 (stereo unspecified), which max response, negative = inhibition is on record?
A: The max response, negative = inhibition was inactive: -22.4%.

Q: How did the max response, negative = inhibition turn out when CN(Cc1ccccc1)C(=O)COC(=O)c1ccc[nH]c1=O was run?
A: Its max response, negative = inhibition is inactive: -5.13%.

Q: Which max response, negative = inhibition does the source give for Cc1nn(C)cc1/C=N/NC(=O)C1(O)c2ccccc2-c2ccccc21 here?
A: Its max response, negative = inhibition is inactive: -0.875%.

Q: Which max response, negative = inhibition does the source give for COc1ccc2[nH]c(C(=O)N3CCCN(Cc4ccc(F)cc4)CC3)cc2c1 here?
A: Its max response, negative = inhibition is inactive: -14.5%.

Q: With CCOC(=O)c1cc2c(=O)n3ccccc3nc2n(C(C)C)c1=NC(=O)c1ccncc1 as the compound, how does the Potency read?
A: Its Potency is inconclusive: 33.6 µM [inhibitor, partial curve].

Q: How did the Potency turn out when COc1ccc(NC(=O)COC(=O)c2ccco2)c([N+](=O)[O-])c1 was run?
A: Its Potency is active: 26.7 µM.

Q: CCOC(=O)c1ccccc1NC(=O)c1ccc2c(SCC(=O)O)c3c(nc2c1)CCCC3 was tested. Which Potency did it give?
A: The Potency was inconclusive: 33.6 µM [inhibitor, single point].
